Results published in PubChem BioAssay AID248 (DTP/NCI, 2004).
The list is a part of this screen's results and no random one: it is rich in T/C values a quarter to a half above the control, in often repeated tests (any T/C) and in doses without a T/C. Further doses and runs are listed elsewhere. T/C is the treated group as % of the vehicle group. Some entries give survivors of the animals treated and no T/C: the source files T/C as zero there, which appears to mark a toxic dose or a test without result, not a measured value. Some survivor counts are full or nearly so, which does not show that the dose was tolerated: survival well below the control is almost never listed, so the zero probably covers shortened survival too. Counts of survivors are from the toxicity check (mostly the fifth day) where no day follows; animals may have died later. Schedule codes are those of the source, read here as Q, the interval in days (D) or hours (H), X, the number of doses. Some entries hold several experiments; their values stand side by side, smallest first. Where survival is the endpoint, this PubChem deposit counts one and a half times the control or more as active, and values a quarter to a half above the control carry no call in these data; other NCI protocols may use other cut-offs. Some T/C values carry the count of animals alive at the toxicity check (mostly the fifth day); where none is given, no animal had died by that day.

Tested on: L1210 leukemia ip in BDF1 mice, survival T/C
Test: NCI In Vivo Anticancer Drug Screen. Data for tumor model L1210 Leukemia (intraperitoneal) in B6D2F1 (BDF1) mice
Settings: T/C endpoint: mean survival time, higher T/C = longer survival
[1] = dose: 100.0 mg/kg/injection, schedule: Q01DX001 (ip), vehicle: saline
[2] = dose: 200.0 mg/kg/injection, schedule: Q01DX001 (ip), vehicle: saline
[3] = dose: 400.0 mg/kg/injection, schedule: Q01DX001 (ip), vehicle: saline
[4] = dose: 400.0 mg/kg/injection, schedule: Q04DX002 (ip), vehicle: Klucel (hydroxypropylcellulose) (HPC)
[5] = dose: 400.0 mg/kg/injection, schedule: Q04DX003 (ip), vehicle: saline

For `CCCCCC[n+]1cccc(C#N)c1`, the survivor count (dose: 300.0 mg/kg/injection, schedule: Q04DX003 (ip), vehicle: saline) was 0 of 6.
In the case of `Cc1ccc2c(c1)P(O)(=S)c1cc(F)ccc1O2` (configuration not stated), the survivor count (dose: 400.0 mg/kg/injection, schedule: Q01DX009 (ip), vehicle: saline) is reported as 1 of 6.
For `CCCCCCOC(=O)C(N)Cc1ccc(O)c(N(CCCl)CCCl)c1` (configuration not stated), the T/C (dose: 0.02 mg/kg/injection, schedule: Q01DX009 (ip), vehicle: saline) was 134 % of control, the T/C (dose: 0.05 mg/kg/injection, schedule: Q01DX009 (ip), vehicle: saline) was 134 % of control and the T/C (dose: 0.1 mg/kg/injection, schedule: Q01DX009 (ip), vehicle: saline) was 130 % of control. For the same molecule, the T/C (dose: 0.5 mg/kg/injection, schedule: Q01DX001 (ip), vehicle: saline) was 132 % of control, the survivor count (dose: 1.0 mg/kg/injection, schedule: Q01DX001 (ip), vehicle: saline) was 6 of 6 and the survivor count (dose: 2.2 mg/kg/injection, schedule: Q01DX009 (ip), vehicle: saline) was 2 of 6. The survivor count (dose: 3.3 mg/kg/injection, schedule: Q01DX009 (ip), vehicle: saline) was 0 of 6 and 6 of 6, the survivor count (dose: 5.0 mg/kg/injection, schedule: Q01DX009 (ip), vehicle: saline) was 0 of 6 and 6 of 6 and the survivor count (dose: 7.5 mg/kg/injection, schedule: Q01DX001 (ip), vehicle: saline) was 0 of 6. The survivor count (dose: 7.5 mg/kg/injection, schedule: Q01DX009 (ip), vehicle: saline) was 0 of 6 and 5 of 6, the T/C (dose: 10.0 mg/kg/injection, schedule: Q01DX001 (ip), vehicle: saline) was 141 % of control [5 of 6 alive] and the survivor count (dose: 15.0 mg/kg/injection, schedule: Q01DX001 (ip), vehicle: saline) was 1 of 6. The survivor count (dose: 30.0 mg/kg/injection, schedule: Q01DX001 (ip), vehicle: saline) was 3 of 6, the survivor count (dose: 60.0 mg/kg/injection, schedule: Q01DX001 (ip), vehicle: saline) was 0 of 6 and the survivor count (dose: 75.0 mg/kg/injection, schedule: Q01DX001 (sc), vehicle: saline) was 1 of 6. The survivor count (dose: 150.0 mg/kg/injection, schedule: Q01DX001 (sc), vehicle: saline) was 1 of 6, the survivor count (dose: 300.0 mg/kg/injection, schedule: Q01DX001 (sc), vehicle: saline) was 0 of 6 and the T/C (dose: 2.0 micrograms/kg/injection, schedule: Q01DX009 (ip), vehicle: saline) was 137 % of control. For the same molecule, the T/C (dose: 4.0 micrograms/kg/injection, schedule: Q01DX009 (ip), vehicle: saline) was 146 % of control.
For `COC(=O)C1=C(NC(=O)Nc2ccc(Cl)cc2)OC(C)(C)C1c1ccc(Cl)cc1` (configuration not stated), the survivor count (dose: 50.0 mg/kg/injection, schedule: Q01DX009 (ip), vehicle: saline) was 6 of 6, the survivor count [1] was 5 of 6 and the survivor count [2] was 6 of 6. The survivor count [3] was 6 of 6.
In the case of `C=C1CC2(CCCC3(CC(=C)C(=O)O3)C2(C)C)OC1=O` (configuration not stated), the survivor count [3] is reported as 3 of 3.
With `CC1CCCC(C)N1C(=O)Nc1cccc(C(F)(F)F)c1` (configuration not stated) the survivor count (dose: 400.0 mg/kg/injection, schedule: Q01DX009 (ip), vehicle: gum acacia) was 4 of 6.
`CN(C)/N=C/c1nccc2ccccc12` was tested, and the survivor count [3] was 0 of 4.
In the case of `CCN1/C(=C/c2ccc3ccccc3[n+]2CC)C=Cc2ccccc21`, the survivor count (dose: 4.0 mg/kg/injection, schedule: Q01DX001 (ip), vehicle: other) is reported as 3 of 6, the survivor count (dose: 19.0 mg/kg/injection, schedule: Q01DX001 (ip), vehicle: other) is reported as 1 of 6 and the survivor count (dose: 38.0 mg/kg/injection, schedule: Q01DX001 (ip), vehicle: other) is reported as 0 of 6. The survivor count (dose: 75.0 mg/kg/injection, schedule: Q01DX001 (ip), vehicle: other) was 0 of 6, the survivor count (dose: 150.0 mg/kg/injection, schedule: Q01DX001 (ip), vehicle: other) was 0 of 6 and the survivor count (dose: 300.0 mg/kg/injection, schedule: Q01DX001 (ip), vehicle: other) was 0 of 6.
`CCCCCCCCCCCCCCCCCCNc1nc(SC)ncc1C(=O)OCC` was tested, and the survivor count [2] was 0 of 6 and the survivor count [3] was 0 of 6.
For `Cc1c(F)cccc1NCC(=O)NN`, the survivor count [4] was 0 of 3.
For `CCOC(=O)N(C1CCCCC1)P(=O)(OCC)OCC`, the survivor count [5] was 2 of 6.
For `COc1cccc2c1[nH]c1cc3ccncc3cc12`, the survivor count [2] was 1 of 6, the survivor count [3] was 0 of 6 and the survivor count (dose: 400.0 mg/kg/injection, schedule: Q04DX003 (ip), vehicle: Klucel (hydroxypropylcellulose) (HPC)) was 0 of 6.
In the case of `Cc1ccccc1N1CCN(CCC(=O)c2cc3ccccc3o2)CC1`, the survivor count (dose: 38.0 mg/kg/injection, schedule: Q04DX003 (ip), vehicle: saline with Tween-80) is reported as 3 of 5 and the survivor count (dose: 75.0 mg/kg/injection, schedule: Q01DX001 (ip), vehicle: saline with Tween-80) is reported as 0 of 6.
`Cc1ccc(Oc2cccc3c2CC[N+](C)(C)C3)cc1` was tested, and the survivor count (dose: 25.0 mg/kg/injection, schedule: Q01DX001 (ip), vehicle: Klucel (hydroxypropylcellulose) (HPC)) was 5 of 5, the survivor count (dose: 100.0 mg/kg/injection, schedule: Q01DX001 (ip), vehicle: Klucel (hydroxypropylcellulose) (HPC)) was 0 of 6 and the survivor count (dose: 200.0 mg/kg/injection, schedule: Q01DX001 (ip), vehicle: Klucel (hydroxypropylcellulose) (HPC)) was 1 of 6. For the same molecule, the survivor count (dose: 400.0 mg/kg/injection, schedule: Q01DX001 (ip), vehicle: Klucel (hydroxypropylcellulose) (HPC)) was 0 of 6.
For `O=C(O)c1ccc2c(c1)C(=O)c1cc([N+](=O)[O-])ccc1-2`, the survivor count (dose: 400.0 mg/kg/injection, schedule: Q01DX001 (ip), vehicle: carboxymethylcellulose (CMC)) was 1 of 4.
With `CCOC(=O)Cc1cc(Cl)c2cc(C)ccc2n1` the survivor count [1] was 6 of 6 and the survivor count [2] was 6 of 6.
`N=C(N)c1ccc(OCCCCOc2ccc(NC(=O)Nc3ccc(S(=O)(=O)F)cc3Cl)cc2)cc1` was tested, and the survivor count (dose: 50.0 mg/kg/injection, schedule: Q01DX001 (ip), vehicle: saline with Tween-80) was 6 of 6.
In the case of `OCC#CC#CCO`, the survivor count (dose: 200.0 mg/kg/injection, schedule: Q04DX003 (ip), vehicle: saline) is reported as 0 of 6 and the survivor count [5] is reported as 0 of 6.
For `CC1(C)CN1P(=O)(Oc1ccc([N+](=O)[O-])cc1)N1CC1(C)C` (configuration not stated), the survivor count [4] was 0 of 3.
`CC(C)=C(c1ccc(Br)cc1)c1ccc(Br)cc1` was tested, and the survivor count (dose: 200.0 mg/kg/injection, schedule: Q01DX009 (ip), vehicle: acetone) was 6 of 6 and the survivor count (dose: 400.0 mg/kg/injection, schedule: Q01DX009 (ip), vehicle: acetone) was 6 of 6.
`O=c1c2ccccc2sc2c(CO)ccc(NCCN3CCCCC3)c12` was tested, and the T/C (dose: 400.0 mg/kg/injection, schedule: Q01DX009 (ip), vehicle: Klucel (hydroxypropylcellulose) (HPC)) was 131 % of control.
